These are yes or no findings as the source states them, for the method shown. For some assays here: Binding seen in cells or lysates may run through a third protein. Some entries that bind do so weakly or less than the wild type.
How the values were obtained:
[1] = biological target: GW182 (endogenous, HEK293 cells) (human (endogenous in HEK293 cells)) (UniProt Q8NDV7); test: co-immunoprecipitation (anti-FLAG IP, GW182 blot; GW182 IP, FLAG blot), HEK293 cells
[2] = biological target: GW182 (endogenous, HEK293 cells) (human (endogenous in HEK293 cells)) (UniProt Q8NDV7); test: reciprocal co-immunoprecipitation, HEK293 cells transfected with FLAG-AGO2, with or without DETA-NO
[3] = biological target: GW182 (endogenous, HEK293 cells) (human (endogenous in HEK293 cells)) (UniProt Q8NDV7); test: immunoprecipitation with anti-Myc antibody, GW182 immunoblot, HEK293 cells
[4] = biological target: GW182 (endogenous, HEK293 cells) (human (endogenous in HEK293 cells)) (UniProt Q8NDV7); test: immunoprecipitation of endogenous proteins, with or without NO treatment
[5] = biological target: GW182 (endogenous, HEK293 cells) (human (endogenous in HEK293 cells)) (UniProt Q8NDV7); test: immunoprecipitation of endogenous AGO2 and of endogenous GW182, with NO treatment controls

Sequences of proteins named here, by UniProt entry; tags and fusion partners are left off.
UniProt Q8NDV7: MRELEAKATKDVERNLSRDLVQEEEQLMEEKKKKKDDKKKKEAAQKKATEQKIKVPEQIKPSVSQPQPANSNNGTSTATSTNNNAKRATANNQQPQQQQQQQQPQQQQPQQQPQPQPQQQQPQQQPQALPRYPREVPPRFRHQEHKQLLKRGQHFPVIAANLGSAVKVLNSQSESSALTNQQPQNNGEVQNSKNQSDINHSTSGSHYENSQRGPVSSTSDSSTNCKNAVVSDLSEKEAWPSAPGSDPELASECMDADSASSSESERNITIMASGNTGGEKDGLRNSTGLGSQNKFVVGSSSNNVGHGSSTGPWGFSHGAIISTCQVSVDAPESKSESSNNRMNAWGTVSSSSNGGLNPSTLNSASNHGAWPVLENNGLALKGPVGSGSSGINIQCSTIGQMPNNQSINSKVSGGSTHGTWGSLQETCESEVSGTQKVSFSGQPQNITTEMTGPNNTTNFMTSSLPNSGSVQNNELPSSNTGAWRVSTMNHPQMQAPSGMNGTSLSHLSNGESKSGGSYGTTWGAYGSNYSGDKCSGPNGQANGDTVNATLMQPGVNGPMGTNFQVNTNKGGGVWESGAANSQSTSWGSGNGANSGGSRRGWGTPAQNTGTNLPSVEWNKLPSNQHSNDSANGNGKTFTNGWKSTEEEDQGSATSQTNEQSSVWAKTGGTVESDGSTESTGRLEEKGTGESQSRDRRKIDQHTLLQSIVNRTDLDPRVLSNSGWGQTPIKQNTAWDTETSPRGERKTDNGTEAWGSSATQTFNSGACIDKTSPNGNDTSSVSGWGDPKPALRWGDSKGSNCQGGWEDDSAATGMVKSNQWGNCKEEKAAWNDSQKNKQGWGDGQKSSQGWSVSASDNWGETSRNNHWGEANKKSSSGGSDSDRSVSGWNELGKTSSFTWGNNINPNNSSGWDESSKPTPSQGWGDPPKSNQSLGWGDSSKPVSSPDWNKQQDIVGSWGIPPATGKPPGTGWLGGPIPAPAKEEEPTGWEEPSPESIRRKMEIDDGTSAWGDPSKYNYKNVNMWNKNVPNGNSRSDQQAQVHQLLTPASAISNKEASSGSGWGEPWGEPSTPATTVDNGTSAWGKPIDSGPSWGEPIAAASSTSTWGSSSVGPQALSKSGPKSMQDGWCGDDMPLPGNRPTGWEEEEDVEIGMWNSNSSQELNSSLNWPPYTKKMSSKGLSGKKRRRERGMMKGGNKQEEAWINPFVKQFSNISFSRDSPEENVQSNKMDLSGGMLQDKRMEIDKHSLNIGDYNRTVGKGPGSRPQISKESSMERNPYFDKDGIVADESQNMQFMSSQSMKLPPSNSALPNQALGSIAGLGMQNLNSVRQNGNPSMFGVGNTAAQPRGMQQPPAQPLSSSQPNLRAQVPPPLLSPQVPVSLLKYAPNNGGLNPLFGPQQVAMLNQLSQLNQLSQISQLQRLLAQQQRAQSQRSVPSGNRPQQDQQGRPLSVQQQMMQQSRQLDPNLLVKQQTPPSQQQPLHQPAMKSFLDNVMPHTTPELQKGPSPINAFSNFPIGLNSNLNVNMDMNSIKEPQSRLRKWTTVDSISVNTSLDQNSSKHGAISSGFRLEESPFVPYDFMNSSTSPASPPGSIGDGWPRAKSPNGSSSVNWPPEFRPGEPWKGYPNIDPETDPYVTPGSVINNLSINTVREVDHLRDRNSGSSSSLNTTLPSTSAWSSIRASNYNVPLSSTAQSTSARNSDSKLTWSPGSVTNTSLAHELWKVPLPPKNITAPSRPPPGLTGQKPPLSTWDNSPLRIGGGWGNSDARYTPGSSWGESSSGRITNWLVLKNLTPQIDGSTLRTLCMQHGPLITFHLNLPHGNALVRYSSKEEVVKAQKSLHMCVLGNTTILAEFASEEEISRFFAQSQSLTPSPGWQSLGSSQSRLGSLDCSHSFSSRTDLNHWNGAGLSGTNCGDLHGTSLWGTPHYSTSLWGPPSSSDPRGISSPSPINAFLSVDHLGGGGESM
UniProt Q9UKV8: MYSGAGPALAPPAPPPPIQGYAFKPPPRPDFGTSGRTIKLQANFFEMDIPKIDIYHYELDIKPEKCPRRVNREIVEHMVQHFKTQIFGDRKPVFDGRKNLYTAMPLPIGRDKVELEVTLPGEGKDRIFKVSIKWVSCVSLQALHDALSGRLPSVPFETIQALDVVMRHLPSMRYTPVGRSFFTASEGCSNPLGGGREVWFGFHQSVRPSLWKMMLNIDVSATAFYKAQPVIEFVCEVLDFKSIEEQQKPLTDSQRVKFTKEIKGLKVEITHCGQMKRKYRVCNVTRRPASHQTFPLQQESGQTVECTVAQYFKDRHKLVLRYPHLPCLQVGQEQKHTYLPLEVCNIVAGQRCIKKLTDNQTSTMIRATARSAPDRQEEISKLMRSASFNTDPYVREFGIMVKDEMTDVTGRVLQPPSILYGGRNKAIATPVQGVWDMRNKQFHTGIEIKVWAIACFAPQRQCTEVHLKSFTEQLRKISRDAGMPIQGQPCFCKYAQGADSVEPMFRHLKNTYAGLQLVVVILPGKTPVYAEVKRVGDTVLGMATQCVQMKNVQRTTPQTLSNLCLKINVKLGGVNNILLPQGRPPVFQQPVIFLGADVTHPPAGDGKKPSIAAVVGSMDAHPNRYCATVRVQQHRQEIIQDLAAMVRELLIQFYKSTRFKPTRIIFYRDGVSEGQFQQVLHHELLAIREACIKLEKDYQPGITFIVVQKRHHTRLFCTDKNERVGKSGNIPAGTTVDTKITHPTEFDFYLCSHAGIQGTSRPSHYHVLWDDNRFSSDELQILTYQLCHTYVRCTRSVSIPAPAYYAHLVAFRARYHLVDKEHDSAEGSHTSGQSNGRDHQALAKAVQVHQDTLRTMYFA

In the case of “FLAG-AGO2 (FLAG-tagged wild-type human Argonaute-2) (from UniProt Q9UKV8 1-859)”, the binding [1] is reported as “binds” and the binding [2] is reported as “binds”.
For “Myc-AGO2 (Myc-tagged wild-type human Argonaute-2) (from UniProt Q9UKV8 1-859)”, the binding [3] was “binds”.
In the case of “endogenous AGO2 (Argonaute-2 of cultured mammalian cells) (from UniProt Q9UKV8 1-859)”, the binding [4] is reported as “binds” and the binding [5] is reported as “binds”.

From patent publication US20220184143A1, “COMPOSITIONS AND METHODS OF MODULATING CASOTRANSMITTER SIGNALING” (CASE WESTERN RESERVE UNIVERSITY, priority 2019, published 2022)
